Tests used:
in vivo [1] = settings: mouse, po, 20 mg/kg
in vivo [2] = settings: rat, po, 20 mg/kg

concentration at 20 min (in vivo [1]): 23500 ng/mL
concentration at 40 min (in vivo [1]): 10500 ng/mL
concentration at 1 h (in vivo [1]): 5200 ng/mL
concentration at 2 h (in vivo [1]): 1000 ng/mL
concentration at 20 min (in vivo [2]): 2800 ng/mL
concentration at 1 h (in vivo [2]): 5700 ng/mL
concentration at 2 h (in vivo [2]): 6000 ng/mL
concentration at 4 h (in vivo [2]): 5200 ng/mL
concentration at 6 h (in vivo [2]): 3200 ng/mL
concentration at 9 h (in vivo [2]): 1100 ng/mL
Compound: CC1=C(C(=O)O)N2C(=O)[C@@H](NC(=O)[C@H](N)c3ccccc3)[C@H]2SC1 [3-methyl, cephalexin monohydrate, reference compound]
